Measured values: patent US9446063B2, “Methods for treating type-2 diabetes and obesity” (priority 2009, dated 2016)
Marks after values point to notes of the source that are not given here.

Experiment: HPLC quantification of ascorbic acid, chlorogenic acid, caffeic acid, ferulic acid and rutin in tubers, tuber tissues and extracts
Settings: for Virtual tuber (100 g FM) HPLC mean of 12 Canadian-grown cultivars, 1 month: 1 month storage; for Virtual tuber (100 g FM) HPLC mean of 12 Canadian-grown cultivars, 7 months: 7 months storage

Compound | Virtual tuber (100 g FM) HPLC mean of 12 Canadian-grown cultivars, 1 month | Virtual tuber (100 g FM) HPLC mean of 12 Canadian-grown cultivars, 7 months
O=C1O[C@H]([C@@H](O)CO)C(O)=C1O [ascorbic acid] | 30.67 ± 1.21^a mg/100 g FM | 5.99 ± 0.23^b mg/100 g FM
O=C(O)/C=C/c1ccc(O)c(O)c1 [caffeic acid] | 0.31 ± 0.03^a mg/100 g FM | 0.02 ± 0.01^b mg/100 g FM
COc1cc(/C=C/C(=O)O)ccc1O [ferulic acid] | 0.38 ± 0.04^a mg/100 g FM | 0.04 ± 0.01^b mg/100 g FM
